Assay results taken from patent publication US7109203B2, “Sulfonamide derivatives” (Novartis AG, priority 2001, dated 2006).
Some entries share one result that the patent states for a list of compounds.

The molecules below were run against T1, human bradykinin B1 receptor (Homo sapiens, UniProt P46663) (assay: Test I: Bradykinin Receptor Binding Assay ([3H]-desArg10kallidin displacement, IL-1β-treated WI-38 cells)). Settings: bradykinin antagonist activity, statement in words.
T1 construct: To upregulate expression of the B1 receptor the cells are treated with 100 units/ml of IL-1β; endogenous in cells; host or cells: WI-38 cells treated with 100 units/ml IL-1β for 3 hours
T1 sequence (P46663 1-353): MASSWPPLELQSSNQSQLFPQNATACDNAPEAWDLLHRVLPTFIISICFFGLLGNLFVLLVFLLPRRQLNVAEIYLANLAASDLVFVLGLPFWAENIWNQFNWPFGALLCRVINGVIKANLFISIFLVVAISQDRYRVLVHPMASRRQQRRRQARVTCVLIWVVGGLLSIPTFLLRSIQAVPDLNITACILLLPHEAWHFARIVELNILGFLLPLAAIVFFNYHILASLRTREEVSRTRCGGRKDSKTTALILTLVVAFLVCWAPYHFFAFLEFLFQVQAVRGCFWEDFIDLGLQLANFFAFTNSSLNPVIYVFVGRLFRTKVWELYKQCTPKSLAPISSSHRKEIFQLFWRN
`O=C(O)CC(CCc1ccccc1)NC(=O)CN(CCOc1ccc2c(c1)CCC2)S(=O)(=O)c1ccc(Cl)cc1Cl` (centres unmarked) [Example 15] was tested, and the “active at the human B1 bradykinin receptor” value was “active”.
In the case of `COc1ccc(CC(CC(=O)O)NC(=O)CN(CCOc2ccc3c(c2)CCC3)S(=O)(=O)c2ccc(Cl)cc2Cl)cc1` (centres unmarked) [Example 17], the “active at the human B1 bradykinin receptor” value is reported as “active”.
`O=C(CN(CCOc1ccc2c(c1)CCC2)S(=O)(=O)c1ccc(Br)cc1Cl)NCC(C(=O)O)c1ccccc1` (centres unmarked) [Example 8] was tested, and the “active at the human B1 bradykinin receptor” value was “active”.
With `Cc1cc(Br)ccc1S(=O)(=O)N(CCOc1ccc2c(c1)CCC2)CC(=O)NC(CC(=O)O)Cc1ccccc1` (centres unmarked) [Example 32] the “active at the human B1 bradykinin receptor” value was “active”.
For `O=C(CN(CCOc1ccc2c(c1)CCC2)S(=O)(=O)c1ccc(Cl)cc1Cl)NC(CCc1ccccc1)C(=O)O` (single isomer, unassigned) [Example 12], the “active at the human B1 bradykinin receptor” value was “active”.
In the case of `COc1ccccc1CC(CC(=O)O)NC(=O)CN(CCOc1ccc2c(c1)CCC2)S(=O)(=O)c1ccc(Cl)cc1Cl` (centres unmarked) [Example 28], the “active at the human B1 bradykinin receptor” value is reported as “active”.
For `O=S(=O)(c1ccc(Cl)cc1Cl)N(CCOc1ccc2c(c1)CCC2)Cc1nnn[nH]1` [Example 33, 2,4-dichloro-N-[2-(indan-5-yloxy)-ethyl]-N-(1H-tetrazol-5-ylmethyl)benzene-sulfonamide], the “active at the human B1 bradykinin receptor” value was “active”.
`O=C(O)CC(Cc1ccccc1)NC(=O)CN(CCOc1ccc2c(c1)CCC2)S(=O)(=O)c1ccc(Cl)cc1Cl` (single isomer, unassigned) [Example 25] was tested, and the “active at the human B1 bradykinin receptor” value was “active”.
With `O=C(CN(CCOc1ccc2c(c1)CCC2)S(=O)(=O)c1ccc(Cl)cc1Cl)NC(Cc1ccccc1)C(=O)O` (single isomer, unassigned) [Example 10] the “active at the human B1 bradykinin receptor” value was “active”.
For `O=C(O)CC(CCc1ccccc1)NC(=O)CN(CCOc1ccc2c(c1)CCC2)S(=O)(=O)c1ccc(Br)cc1Cl` (centres unmarked) [Example 16], the “active at the human B1 bradykinin receptor” value was “active”.
In the case of `O=C(CN(CCOc1ccc2c(c1)CCC2)S(=O)(=O)c1ccc(Cl)cc1Cl)NC(Cc1ccccn1)C(=O)O` (centres unmarked) [Example 23], the “active at the human B1 bradykinin receptor” value is reported as “active”.
In the case of `O=C(O)C[C@H](Cc1ccccc1)NC(=O)CN(CCOc1ccc2c(c1)CCC2)S(=O)(=O)c1ccc(Br)cc1Cl` [Example 1, (S)-3-(2-{(4-bromo-2-chloro-benzenesulfonyl)-[2-(indan-5-yloxy)-ethyl]-amino}-acetylamino)-4-phenyl-butyric Acid], the “active at the human B1 bradykinin receptor” value is reported as “active”.
In the case of `O=C(O)CC(Cc1cccnc1)NC(=O)CN(CCOc1ccc2c(c1)CCC2)S(=O)(=O)c1ccc(Br)cc1Cl` (centres unmarked) [Example 7], the “active at the human B1 bradykinin receptor” value is reported as “active”.
`O=C(O)CC(Cc1ccccc1)NCCN(CCOc1ccc2c(c1)CCC2)S(=O)(=O)c1ccc(Cl)cc1Cl` (centres unmarked) [Example 35] was tested, and the “active at the human B1 bradykinin receptor” value was “active”.
With `O=C(CN(CCOc1ccc2c(c1)CCC2)S(=O)(=O)c1ccc(Cl)cc1Cl)NC(Cc1ccccc1Cl)C(=O)O` (centres unmarked) [Example 22] the “active at the human B1 bradykinin receptor” value was “active”.
In the case of `O=C(CN(CCOc1ccc2c(c1)CCC2)S(=O)(=O)c1ccc(Cl)cc1Cl)NC(C(=O)O)c1ccccc1` (single isomer, unassigned) [Example 13], the “active at the human B1 bradykinin receptor” value is reported as “active”.
With `O=C(O)CN(CCOc1ccc2c(c1)CCC2)S(=O)(=O)c1ccc(Cl)cc1Cl` [Example 3, {(2,4-dichloro-benzenesulfonyl)-[2-(indan-5-yloxy)ethyl]-amino}-acetic acid] the “active at the human B1 bradykinin receptor” value was “active”.
With `O=S(=O)(c1ccc(Cl)cc1Cl)N(CCO)CCOc1ccc2c(c1)CCC2` [Example 34] the “active at the human B1 bradykinin receptor” value was “active”.
In the case of `O=C(O)CN(CCOc1ccc2c(c1)CCC2)S(=O)(=O)c1ccc(Br)cc1Cl` [Example 5, {(4-bromo-2-chloro-benzenesulfonyl)-[2-(indan-5-yloxy)-ethyl]-amino}-acetic acid], the “active at the human B1 bradykinin receptor” value is reported as “active”.
In the case of `O=C(CN(CCOc1ccc2c(c1)CCC2)S(=O)(=O)c1ccc(Cl)cc1Cl)NCC(C(=O)O)c1ccccc1` (centres unmarked) [Example 20], the “active at the human B1 bradykinin receptor” value is reported as “active”.
`COc1cccc(CC(CC(=O)O)NC(=O)CN(CCOc2ccc3c(c2)CCC3)S(=O)(=O)c2ccc(Br)cc2Cl)c1` (centres unmarked) [Example 21] was tested, and the “active at the human B1 bradykinin receptor” value was “active”.
With `O=C(O)CC(Cc1ccccc1Cl)NC(=O)CN(CCOc1ccc2c(c1)CCC2)S(=O)(=O)c1ccc(Cl)cc1Cl` (centres unmarked) [Example 19] the “active at the human B1 bradykinin receptor” value was “active”.
`O=C(O)CC(NC(=O)CN(CCOc1ccc2c(c1)CCC2)S(=O)(=O)c1ccc(Cl)cc1Cl)c1ccccc1` (single isomer, unassigned) [Example 11] was tested, and the “active at the human B1 bradykinin receptor” value was “active”.
In the case of `CC(C(=O)NCCC(=O)O)N(CCOc1ccc2c(c1)CCC2)S(=O)(=O)c1ccc(Cl)cc1Cl` (centres unmarked) [Example 6], the “active at the human B1 bradykinin receptor” value is reported as “active”.
In the case of `O=C(CN(CCOc1ccc2c(c1)CCC2)S(=O)(=O)c1ccc(Cl)cc1Cl)NC(Cc1cccnc1)C(=O)O` (centres unmarked) [Example 27], the “active at the human B1 bradykinin receptor” value is reported as “active”.
For `COc1cccc(CC(CC(=O)O)NC(=O)CN(CCOc2ccc3c(c2)CCC3)S(=O)(=O)c2ccc(Cl)cc2Cl)c1` (centres unmarked) [Example 30], the “active at the human B1 bradykinin receptor” value was “active”.
